Results deposited as PubChem BioAssay AID1259308 (NCATS, 2017)
Shown is an unselected part of about 59,000 deposited reagents. Over the whole deposit, about 1,510 (2.6%) were called active. 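Calls use total luciferase alone and ignore viability, so some active siRNAs may act by altering cell number.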 Reagents against one gene are numbered here. Not all columns of the deposit are shown.

Screen: 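Candidate targets for better recombinant protein yield in mammalian cells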 (primary screen)
Cells: human HEK293 embryonic kidney cells stably expressing firefly luciferase (HEK-CMV-Luc2-Hygro)
Reagent: single siRNA against human genes, 0.8 pmol siRNA per well
Timing: 72 h
Detection: 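Reporter luminescence and viable-cell signal on separate replicate plates, given as percent of non-targeting control and median/MAD z-scores, plus per-cell luciferase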
Direction: total luciferase, z-score: higher = more reporter protein produced
Call rule: 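An siRNA counts as active if its total luciferase robust z-score exceeds 3; genes with two or more such siRNAs out of three were retested with fresh siRNAs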
Calls: active = raised luciferase; inactive = no rise

BAIAP2L1 #1 → total luciferase, z-score = 1.12; Outcome = inactive
BAIAP2L1 #2 → total luciferase, z-score = 1.41; Outcome = inactive
BAIAP2L1 #3 → total luciferase, z-score = -0.781; Outcome = inactive
RTN2 #1 → total luciferase, z-score = 1.68; Outcome = inactive
RTN2 #2 → total luciferase, z-score = -1.41; Outcome = inactive
RTN2 #3 → total luciferase, z-score = -0.104; Outcome = inactive
NREP #1 → total luciferase, z-score = 0.766; Outcome = inactive
NREP #2 → total luciferase, z-score = -1.21; Outcome = inactive
NREP #3 → total luciferase, z-score = 0.0595; Outcome = inactive
MAFA #1 → total luciferase, z-score = -0.248; Outcome = inactive
MAFA #2 → total luciferase, z-score = 0.15; Outcome = inactive
MAFA #3 → total luciferase, z-score = 1.81; Outcome = inactive
